No constants are given. Whether binding was seen depends on the method and setting. Binding seen in cells or lysates may run through a third protein. Some binding calls cover weakened binding; strength is not graded here.

Sequences of proteins named here, by UniProt entry; tags and fusion partners are left off.
UniProt Q9P296: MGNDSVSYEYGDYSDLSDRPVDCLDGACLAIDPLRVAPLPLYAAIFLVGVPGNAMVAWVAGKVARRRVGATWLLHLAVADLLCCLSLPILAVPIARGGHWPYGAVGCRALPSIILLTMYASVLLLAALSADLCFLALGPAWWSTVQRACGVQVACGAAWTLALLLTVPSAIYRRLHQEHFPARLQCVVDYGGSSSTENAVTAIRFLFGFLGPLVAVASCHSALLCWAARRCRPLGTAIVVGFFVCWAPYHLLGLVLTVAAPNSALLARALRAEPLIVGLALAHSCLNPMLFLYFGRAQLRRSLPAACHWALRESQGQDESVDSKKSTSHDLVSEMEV
UniProt P32121: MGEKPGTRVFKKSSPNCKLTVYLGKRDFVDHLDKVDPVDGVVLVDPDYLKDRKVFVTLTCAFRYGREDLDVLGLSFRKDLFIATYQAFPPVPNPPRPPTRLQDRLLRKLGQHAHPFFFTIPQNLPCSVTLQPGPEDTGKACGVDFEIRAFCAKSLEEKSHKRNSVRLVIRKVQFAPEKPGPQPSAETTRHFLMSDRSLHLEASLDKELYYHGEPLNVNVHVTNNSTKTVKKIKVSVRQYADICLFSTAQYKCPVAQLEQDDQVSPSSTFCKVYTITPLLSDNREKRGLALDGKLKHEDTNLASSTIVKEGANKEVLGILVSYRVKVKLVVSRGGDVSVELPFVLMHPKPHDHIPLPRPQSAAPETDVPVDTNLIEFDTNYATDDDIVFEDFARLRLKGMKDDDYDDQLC

The test concerns the target human C5aR2-Venus (human) (UniProt Q9P296). Nature of the test: FRET or BRET; HEK293 cells transiently transfected with β-arrestin 2-Rluc8 and human C5aR2-Venus; substrate EnduRen 30 μM; 37°C; ligand-induced BRET ratio (Venus/Rluc8, vehicle subtracted) after SB290157, P32 or C5a.

On to “β-arrestin 2-Renilla luciferase 8 (Rluc8) (from UniProt P32121 1-409)”, for which the binding result was “binds”.

The values are drawn from PMC7859635, “The “C3aR Antagonist” SB290157 is a Partial C5aR2 Agonist” (Frontiers in Pharmacology, 2021).
